Experimental data from patent US7462622B2, “Pyrrolo[2, 3-d] pyrimidine derivatives as corticotropin releasing factor antagonists” (Glaxo Group Limited, priority 2001, dated 2008).
At least one compound was matched to its structure with a doubt left. Some of these results come from one statement about several compounds together.

Tests used:
[1] = target: T1, recombinant human CRF receptors; experiment: CRF receptors-binding assay by scintillation proximity (SPA), displacement of 125I-oCRF (CRF1) / 125I-Sauvagine (CRF2); conditions: recombinant human CRF receptors in CHO cell membranes; CRF1 or CRF2 subtype not given; read-out: Ki (CRF receptor binding affinity)
T1 construct: other: recombinant human CRF receptors in CHO cell membranes; CRF1 or CRF2 subtype
Procedure: (§1) The CRF receptors-binding assay was performed by using the homogeneous technique of scintillation proximity (SPA). The ligand binds to recombinant membrane preparation expressing the CRF receptors which in turn bind to wheat germ agglutinin coated SPA beads. In the Experimental Part will be disclosed the details of the experiments.
(§2) CRF binding affinity has been determined in vitro by the compounds' ability to displace ^125I-oCRF and ^125I-Sauvagine for CRF1 and CRF2 SPA, respectively, from recombinant human CRF receptors expressed in Chinese Hamster Ovary (CHO) cell membranes. For membrane preparation, CHO cells from confluent T-flasks were collected in SPA buffer (HEPES/KOH 50 mM, EDTA 2 mM; MgCl2 10 mM, pH 7.4.) in 50 mL centrifuge tubes, homogenized with a Polytron and centrifuged (50,000 g for 5 min at 4° C.: Beckman centrifuge with JA20 rotor). The pellet was resuspended, homogenized and centrifuged as before.
(§3) The SPA experiment has been carried out in Optiplate by the addition of 100 μL the reagent mixture to 1 μL of compound dilution (100% DMSO solution) per well. The assay mixture was prepared by mixing SPA buffer, WGA SPA beads (2.5 mg/mL), BSA (1 mg/mL) and membranes (50 and 5 μg of protein/mL for CRF1 and CRF2 respectively) and 50 PM of radioligand.
(§4) The plate was incubated overnight (>18 hrs) at room temperature and read with the Packard Topcount with a WGA-SPA ^125I counting protocol.

[2] = system: recombinant human CRF receptors; experiment: as above; conditions: qualitative statement; assay not specified
Procedure: as §1, §2, §3, §4

| SMILES | Ki [1] [µM] | activity [2] |
| --- | --- | --- |
| CCC(CC)Oc1nc(C(F)(F)F)ccc1N1CCc2c(OC(CC)CC)nc(C)nc21 [Compound 1-14, 4-(1-ethyl-propoxy)-7-[2-(1-ethyl-propoxy)-6-trifluoromethyl-pyridin-3-yl]-2-methyl-6,7-dihydro-5H-pyrrolo[2,3-d]pyrimidine] | < 1 |  |
| CCC(CC)COc1nc(C)nc2c1CCN2c1ccc(Cl)cc1Cl [Compound 1-5, 7-(2,4-Dichlorophenyl)-4-(2-ethyl-butoxy)-2methyl-6,7-dihydro-5H-pyrrolo[2,3-d]-pyrimidine] | < 1 |  |
| Cc1nc(OC(CC(C)C)C(C)C)c2c(n1)N(c1ccc(Cl)cc1Cl)CC2 (stereo not drawn) [Compound 1-3] | < 0.1 |  |
| Cc1nc(OC(C(C)C)C(C)C)c2c(n1)N(c1ccc(Cl)cc1Cl)CC2 [Compound 1-2, 7-(2,4-Dichlorophenyl)-4-(1-isopropyl-2-methyl-propoxy)-2-methyl-6,7-dihydro-5H-pyrrolo-[2,3d]pyrimidine] | < 0.1 |  |
| CCC(COC)Oc1nc(C)nc2c1CCN2c1ccc(C(F)(F)F)cc1C(F)(F)F (stereo not drawn) [Compound 1-12, 7-(2,4-bis-trifluoromethyl-phenyl)-4-(1-methoxymethyl-propoxy)-2-methyl-6,7-dihydro-5H-pyrrolo[2,3-d]pyrimidine] | < 0.1 |  |
| CCC(CC)Oc1nc(C)nc2c1CCN2c1ccc(C(F)(F)F)cc1C#N [Compound 1-15, 2-[4-(1-ethyl-propoxy)-2-methyl-5,6-dihydro-pyrrolo[2,3-d]pyrimidin-7-yl]-5-trifluoromethyl-benzonitrile] | < 0.1 |  |
| CCOCC(COCC)Oc1nc(C)nc2c1CCN2c1ccc(Cl)cc1Cl [Compound 1-6, 7-(2,4-Dichlorophenyl)-4-(2-ethoxy-1-ethoxymethyl-ethoxy)-2-methyl-6,7-dihydro-5H-pyrrolo[2,3d]pyrimidine] | < 1 |  |
| CCC(CC)Oc1nc(C)nc2c1CCN2c1ccc(C(F)(F)F)cc1C(F)(F)F [Compound 1-7, 7-(2,4-Bis-trifluoromethyl-phenyl)4-(1-ethyl-propoxy)-2-methyl-6,7-dihydro-5H-pyrrolo[2,3-d]pyrimidine] | < 0.1 |  |
| CCC(CC)Oc1nc(C)nc2c1CCN2c1ccc(C(N)=O)cc1C(F)(F)F [Compound 1-13, 4-[4-(1-ethyl-propoxy)-2-methyl-5,6-dihydro-pyrrolo[2,3-d]pyrimidin-7-yl]-3-trifluoromethyl-benzamide] | < 0.1 |  |

More lines, now with the values ahead:

| Ki [1] [µM] | activity [2] | SMILES |
| --- | --- | --- |
| < 0.1 |  | CCC(CC)Oc1nc(C)nc2c1CCN2c1ccc(Cl)cc1Cl [Compound 1-1, 7-(2,4-Dichlorophenyl)-4-(1-ethyl-propoxy)-2-methyl-6,7-dihydro-5H-pyrrolo[2,3-d]-pyrimidine] |
| < 0.1 |  | CCC(CO)Oc1nc(C)nc2c1CCN2c1ccc(Cl)cc1Cl (stereo not drawn) [Compound 1-10, 2-[7-(2,4-Dichlorophenyl)-2-methyl-6,7-dihydro-5H-pyrrolo[2,3-d]pyrimidin-4-yloxy]butan-1-ol] |
| < 0.1 | good activity | CCC(COC)Oc1nc(C)nc2c1CCN2c1ccc(Cl)cc1Cl (stereo not drawn) [Compound 1-9, 7(2,4-Dichlorophenyl)-4-(1-methoxymethyl-propoxy)-2-methyl-6,7-dihydro-5H-pyrrolo[2,3d]pyrimidine] |
| < 0.1 |  | COCC(COC)Oc1nc(C)nc2c1CCN2c1ccc(Cl)cc1Cl [Compound 1-4, 7-(2,4-Dichlorophenyl)-4-(2-methoxy-1-methoxymethyl-ethoxy)-2-methyl-6,7-dihydro-5H-pyrrolo[2,3d]pyrimidine] |
| < 0.1 |  | C=C(C)C(CC)Oc1nc(C)nc2c1CCN2c1ccc(Cl)cc1Cl (stereo not drawn) [Compound 1-8, 7-(2,4-Dichlorophenyl)-4-(1-ethyl-2-methyl-allyloxy)-2-methyl-6,7-dihydro-5H-pyrrolo[2,3 d]pyrimidine] |
